Experimental data reported in PubChem BioAssay AID485318 (Broad Institute, 2010).
Hit rate of the full screen: of about 1,400 compounds, fewer than 10 were called active.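 How the source made its calls: active means fluorescence-lowering compounds whose fitted half-maximal concentration is at or below ten times the highest valid dose tested; inconclusive means flat curve at 30 to 70% inhibition, or poor fit; inactive means the rest.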 The list shows a part of the results.

Sequences of proteins named here, by UniProt entry; tags and fusion partners are left off. A change or cut given only in a name is not applied to a line headed by its entry.
UniProt O15379: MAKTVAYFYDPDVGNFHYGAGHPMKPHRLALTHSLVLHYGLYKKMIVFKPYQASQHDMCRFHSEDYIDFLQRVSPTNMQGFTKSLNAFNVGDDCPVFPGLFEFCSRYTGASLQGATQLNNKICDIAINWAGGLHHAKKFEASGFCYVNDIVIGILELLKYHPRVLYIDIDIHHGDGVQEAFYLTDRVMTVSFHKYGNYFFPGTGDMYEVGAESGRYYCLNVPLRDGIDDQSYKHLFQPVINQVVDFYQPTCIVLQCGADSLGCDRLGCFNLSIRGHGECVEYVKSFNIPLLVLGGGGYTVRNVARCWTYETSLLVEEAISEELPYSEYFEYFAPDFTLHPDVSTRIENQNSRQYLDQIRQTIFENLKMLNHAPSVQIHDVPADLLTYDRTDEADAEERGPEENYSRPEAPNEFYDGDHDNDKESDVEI

Target: Histone deacetylase 3 (Homo sapiens) (UniProt O15379)
Assay: inhibition of human HDAC3 enzymatic activity – biochemical, fluorescence, cherry-picked samples, counter-screen for JMJD2C/GASC1 demethylase inhibitor project, dose response (AID 485318);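 further: enzyme preincubated with compound before substrate and trypsin were added; 0% = neutral control wells and -100% = SAHA positive control wells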
Conditions: recombinant HDAC3, fluorogenic peptide/trypsin coupled; at 12 µM (top of the series)

| SMILES | activity change, negative = inhibition |
| --- | --- |
| O=S1(=O)CCC(N=Nc2c(O)n(Cc3ccccc3)c3ccccc23)C1 (stereo not given) | inactive: -0.232% |
| COc1ccc(N2C(=O)CSC23CCCCC3)cc1 | inactive: 0.434% |
| CC(C)(C)c1ccc(C2(C)NC(=O)N(CC(=O)Nc3ccc4c(c3)OCO4)C2=O)cc1 (stereo not given) | inactive: 0.267% |
| NS(=O)(=O)c1ccc(CNC(=S)Nc2ccc(F)c(Cl)c2)cc1 | inactive: 0.414% |
| CN(c1ccc(C(=O)O)cc1)S(=O)(=O)c1ccccc1 | inactive: 0.224% |
| O=C(/C=C/c1cccs1)NC1CCS(=O)(=O)C1 (stereo not given) | inactive: -0.185% |
| C[C@]12c3[nH]c4ccccc4c3CCN1C(=O)C(CC(=O)NCc1cccc(C(F)(F)F)c1)C[C@@H]2C(=O)N1CCCCC1 (stereo not given in full) | inactive: 0.131% |
| Cc1cccc(NC(=O)CC2Nc3cccc4cccc(c34)NC2=O)c1 (stereo not given) | inactive: -0.526% |
| CC(C)n1cnc2c(NCc3ccccc3)nc(NCc3ccccc3)nc21 | inactive: -0.0993% |
| CCCN(CC(=O)Nc1ccccc1C)C(=O)C1CCN(S(=O)(=O)c2ccccc2C(F)(F)F)CC1 | inactive: 0.495% |
| CCOC(=O)C1=C(N)Oc2ccc3ccccc3c2C1c1cccnc1 (stereo not given) | inactive: -0.152% |
| COc1ccc(NC(=O)N(C)C[C@H]2Oc3ccc(NC(=O)CCC(F)(F)F)cc3C(=O)N([C@H](C)CO)C[C@@H]2C)cc1 | inactive: 0.728% |
| CCc1ccc([C@@H]2CC=C(C(=O)O)[C@H](c3ccc(Br)cc3)N2S(=O)(=O)c2ccc(C)cc2)cc1 | inactive: -0.057% |
| O=C(NCC1CCCO1)C(c1ccc(F)cc1)N(CCCN1CCOCC1)C(=O)c1ccc(-c2ccccc2)[nH]1 (stereo not given) | inactive: 0.816% |
| CCN(CC(=O)Nc1ccc2c(c1)OCCO2)C(=O)CC1CCCC1 | inactive: 0.513% |
| CC(=O)Nc1ccc(CN2CCN(c3cccc(C(F)(F)F)c3)CC2)cc1 | inactive: 1.03% |
| c1csc(Cn2nnnc2CN2CCN(c3nc4ccccc4s3)CC2)c1 | inactive: 0.656% |
| Cc1nnc(N(C)C(=O)c2ccccn2)s1 | inactive: 0.663% |
| Cc1c(C(c2ccc([N+](=O)[O-])cc2)c2c(C)n(C)n(-c3ccccc3)c2=O)c(=O)n(-c2ccccc2)n1C | inactive: 0.477% |
| O=C(O)Cn1cc(/C=C2/SC(=O)N(CC(=O)N3CCCCCC3)C2=O)c2ccccc21 | inactive: 0.469% |
| N#CCCn1c(SCC(=O)N2CCN(S(=O)(=O)c3ccccc3)CC2)nc2ccccc21 | inactive: 0.508% |
| Oc1cc2ccccc2cc1-c1nnc2n1-c1ccccc1SC2 | inactive: -0.266% |
| Cc1cc(=S)c2cccc(C)c2[nH]1 | inactive: -0.276% |
| CCOC(=O)N1CCC(N2CCN(c3cc(C)ccc3C)CC2)CC1 | inactive: 1.07% |
| CCn1c(CCn2ccnc2C)n[nH]c1=S | inactive: 0.292% |
| COc1ccc(S(=O)(=O)C(C#N)c2nc3ccccc3nc2N2CCCCC2)cc1 (stereo not given) | inactive: 0.282% |
| Cc1ccc(NC(=O)CSc2nnc(-c3cccs3)n2Cc2ccco2)cc1 | inactive: -0.228% |
| CCOc1ccc(N2C(=O)CC(N(O)c3ccccc3)C2=O)cc1 (stereo not given) | inactive: 0.801% |

Another view of some results above.
SMILES	activity change, negative = inhibition
COc1ccc(N2C(=O)CSC23CCCCC3)cc1	inactive: 0.434%
CC(C)(C)c1ccc(C2(C)NC(=O)N(CC(=O)Nc3ccc4c(c3)OCO4)C2=O)cc1 (stereo not given)	inactive: 0.267%
CN(c1ccc(C(=O)O)cc1)S(=O)(=O)c1ccccc1	inactive: 0.224%
CC(=O)Nc1ccc(CN2CCN(c3cccc(C(F)(F)F)c3)CC2)cc1	inactive: 1.03%
CCOc1ccc(N2C(=O)CC(N(O)c3ccccc3)C2=O)cc1 (stereo not given)	inactive: 0.801%

Remaining list, next part.

| SMILES | activity change, negative = inhibition |
| --- | --- |
| CCOC(=O)Cc1ccc(NC(=O)c2ccc(C(C)(C)C)cc2)cc1 | inactive: 0.971% |
| CCc1nnc(NC(=O)CCC(=O)N2CCN(Cc3ccc(Cl)cc3)CC2)s1 | inactive: -1.01% |
| COc1ccc(-c2cc(C(F)(F)F)n3nc(C(=O)NCCCN4CCOCC4)cc3n2)cc1 | inactive: 0.8% |
| COc1ccc(S(=O)(=O)N(C)C[C@H]2Oc3ccc(NC(=O)Cn4cnnn4)cc3C(=O)N([C@H](C)CO)C[C@@H]2C)cc1 | inactive: 0.0417% |
| O=C(Cn1cnc2c(OCc3ccccc3)ncnc21)N1CCN(c2ccccn2)CC1 | inactive: 0.178% |
| COc1ccc(CCNC(=O)N2c3ccccc3Sc3ccccc32)cc1 | inactive: 1.25% |
| COc1ccccc1NC(=O)COC(=O)c1[nH]c(=O)[nH]c(=O)c1N | inactive: -0.201% |
| COc1cc(C(C(=O)NC2CCCCC2)N(Cc2cccs2)C(=O)Cc2c[nH]c3ccccc23)cc(OC)c1OC (stereo not given) | inactive: 0.495% |
| Cc1cc(C(=O)Nc2sc3c(c2C#N)CCC(C)C3)no1 (stereo not given) | inactive: 0.596% |
| O=C(OCc1c(Cl)cccc1Cl)c1cnccn1 | inactive: -11.3% |
| Cc1cccc(-n2cnc(C(=O)NNC(=S)Nc3ccccc3)c2)n1 | inactive: 0.141% |
| NC(=O)Cn1nc([N+](=O)[O-])nc1Oc1ccccc1F | inactive: 0.000497% |
| NC(=O)C1CCN(C(=O)c2ccc(Oc3cc(Cl)cc(Cl)c3)o2)CC1 | inactive: 1.65% |
| CCN(C(=O)C(C)Sc1ccc(S(=O)(=O)N2CCOCC2)cn1)c1ccccc1 (stereo not given) | inactive: -0.226% |
| Cc1ccc(N2NC3(CCN(C(N)=O)CC3)NC2=O)cc1 | inactive: -0.0157% |
| COc1ccc(C(=O)OCC(=O)c2ccccc2)cc1S(=O)(=O)N1CCOCC1 | inactive: -0.0201% |
| CCOC(=O)C1=C(C)N(C)C(C)=C(C(=O)OCC)C1c1cccnc1 | inactive: 1.37% |
| COc1cc2c(cc1OC)C(=O)N1[C@H]3c4cc(C)ccc4OC[C@@H]3[C@H](c3ccccc3)[C@]1(C)C(=O)N2 | inactive: 0.0577% |
| CCOc1ccc(N=Cc2c(O)n(-c3cccc(C)n3)c(=O)c3ccccc23)cc1 | inactive: 0.766% |
| C=CCN(C(=O)Nc1ccccc1)C1CC(=O)N(c2ccc(OC)cc2)C1=O (stereo not given) | inactive: 0.423% |
| N#Cc1ccc(OCC(=O)N2CCN(S(=O)(=O)c3cccs3)CC2)cc1 | inactive: 0.818% |
| Cc1cc(NC(=O)COc2ncnc3sc(C)c(C)c23)no1 | inactive: -0.747% |
| COc1ccc(NC(NC(=O)c2cccnc2)C(Cl)(Cl)Cl)cc1 (stereo not given) | inactive: -0.275% |
| Cc1ccc(Nc2c(-c3ccccn3)nc3cc(C)ccn23)cc1 | inactive: 0.946% |
| CNC(=O)/C(C#N)=C/c1c(N(Cc2ccccc2)Cc2ccccc2)nc2ccccn2c1=O | inactive: 1.26% |
| CCC(C)NCCCOc1ccc(C)cc1OC (stereo not given) | inactive: 0.0239% |
| COc1cccc(NC(=S)/C(=C(\[O-])c2ccc(C)c([N+](=O)[O-])c2)[n+]2ccccc2)c1 | inactive: -0.0179% |
